{"sequences": {"note": "Protein sequences, listed by entry. Tags and fused reporters are not part of them. Lines headed by an entry give the natural chain unless they say otherwise; changes in a name come on top.", "UniProt Q04609": "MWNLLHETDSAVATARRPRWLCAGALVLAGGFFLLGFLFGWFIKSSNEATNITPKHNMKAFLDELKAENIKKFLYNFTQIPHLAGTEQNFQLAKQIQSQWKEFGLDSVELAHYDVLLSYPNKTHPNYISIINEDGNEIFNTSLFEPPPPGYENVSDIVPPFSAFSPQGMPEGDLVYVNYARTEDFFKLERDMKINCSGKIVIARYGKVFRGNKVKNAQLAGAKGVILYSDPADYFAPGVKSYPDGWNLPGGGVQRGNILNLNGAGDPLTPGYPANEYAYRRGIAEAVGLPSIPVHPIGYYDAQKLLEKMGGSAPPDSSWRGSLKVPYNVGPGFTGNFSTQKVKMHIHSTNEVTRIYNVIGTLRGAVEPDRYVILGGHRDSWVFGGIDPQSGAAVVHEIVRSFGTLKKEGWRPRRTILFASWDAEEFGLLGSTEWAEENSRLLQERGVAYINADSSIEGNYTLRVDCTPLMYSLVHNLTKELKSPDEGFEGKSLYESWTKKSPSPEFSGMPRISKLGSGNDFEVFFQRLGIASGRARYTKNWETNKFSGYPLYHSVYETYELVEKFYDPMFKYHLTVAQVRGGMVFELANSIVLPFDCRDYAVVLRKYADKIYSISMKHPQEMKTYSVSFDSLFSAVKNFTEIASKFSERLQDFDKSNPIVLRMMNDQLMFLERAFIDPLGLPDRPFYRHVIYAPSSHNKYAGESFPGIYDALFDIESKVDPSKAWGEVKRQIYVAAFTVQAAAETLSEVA"}, "source": "patent US20150094359", "key": {"[1]": {"biological_target": "PSMA (prostate specific membrane antigen) extracellular domain (Homo sapiens) (UniProt Q04609)", "experiment": "SELEX", "conditions": "selected after 10 forward and 2 counter rounds; 100 mM NaCl, 20 mM Tris, 2 mM MgCl2, 5 mM KCl, 1 mM CaCl2, 0.2% Tween-20, pH 8, 37 C; purified recombinant protein; single-stranded DNA"}, "[2]": {"biological_target": "PSMA (prostate specific membrane antigen) (UniProt Q04609)", "experiment": "flow cytometry", "conditions": "1 uM DAC, 2 h, 37 C; uptake in PSMA+ C4-2 cells, minimal in PSMA-null PC3 cells (confocal); protein on the cell surface; protein details: endogenous on C4-2 cells; folded or branched DNA"}, "[3]": {"biological_target": "PSMA (prostate specific membrane antigen) (UniProt Q04609)", "experiment": "competition with a labelled probe", "conditions": "pre-incubation with anti-PSMA antibody J591 attenuated DAC uptake in C4-2 cells; protein on the cell surface; protein details: endogenous on C4-2 cells; folded or branched DNA"}}, "note": "For part of these data: At least one result comes from cells or an extract, where the contact may be indirect. For part of these data: For at least one entry, the source does not settle the construct or the ends of the probe.", "data": [{"sequence": "GCGTTTTCGCTTTTGCGTTTTGGGTCATCTGCTTACGATAGCAATGCT [SZTI01]", "values": [{"measurement": "selection result", "setting": "[1]", "result": "selected"}]}, {"sequence": "GCGTTTTCGCTTTTGCGTTTTGGGTCATCTGCTTACGATAGCAATGCTCGGCAAAAAAAAAAAAAAAAGCCG / GCGTTTTCGCTTTTGCGTTTTGGGTCATCTGCTTACGATAGCAATGCTCGGCTTTTTTTTTTTTTTTTGCCG", "values": [{"measurement": "binding result", "setting": "[2]", "result": "binds"}, {"measurement": "binding result", "setting": "[3]", "result": "binds"}]}]}
